Among all 320,000 compounds or so, about 2,100 (0.66%) were called active. The shares of active, inactive and inconclusive entries below differ from those in the screen. Calls come from the whole dose curve; as a rule, active = well fitted inhibition curve with a large enough effect in the signal ratio, with a control signal flat (not every such curve was filed as active); inconclusive = small, poorly fitted or top-dose-only effect, or effect the other way, or a change in a side signal; inactive = flat fitted curve, though single readings scatter; the % refers to the signal ratio. Potencies of inconclusive entries are doubtful fits and often do not repeat.
Assay: qHTS Assay for Lipid Storage Modulators in Drosophila S3 Cells
Conditions: BODIPY lipid droplet fluorescence, 18-24 h, cells fed with added oleic acid; lipid storage change, negative = inhibition: at 46.1 µM (top of the series) unless noted
Method in brief: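 Drosophila S3 cells got compounds at several concentrations plus oleic acid (400 uM solution). Laser-scanning cytometry with 488 nm excitation read lipid droplets at 500-530 nm and cells at 575-640 nm. Percent activity was relative to 20 uM Triacsin C.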
% is set by controls: 0 for no effect and ±100 for the full control effect; potency is the fitted concentration of half-maximal effect.

Lipid storage change, negative = inhibition, inactive:
COc1cccc(NC(=O)Nc2ccc3c(c2)nc(C)n3C)c1 1.42%, COc1ccc2c(c1)[C@H]1[C@H](CO2)[C@H](c2ccccc2)[C@]2(C)C(=O)Nc3ccccc3C(=O)N12 7.61%, Cc1cc(C)c(C#N)c(OCC(=O)Nc2ccccc2)n1 0.134%, CNC(=O)c1ncoc1-c1ccc(Cl)cc1 1.92%, O=C(Cc1ccccc1)NCC(=O)OCC(=O)c1cccc([N+](=O)[O-])c1 -0.459%

Lipid storage change, negative = inhibition, inconclusive:
N#Cc1nc(-c2ccco2)oc1NCCCN1CCOCC1 -31.6%, CCOC(=O)N1CCN(C(=O)c2ccc(OC)c(OC)c2)CC1 -1.08%, CCOC(=O)c1[nH]ncc1CN1CCC(Cc2ccccc2)(C(=O)OCC)CC1 36.6%, CCNC(=O)CC1C(=O)N(c2ccccc2)C(=O)N1Cc1ccc(OC)cc1 (stereo unspecified) 9.33%, COc1ccccc1NC(=O)c1c(N=Cc2cccc([N+](=O)[O-])c2)cnn1C 8.48%, CC(=O)C1=C(C)NC(SCc2cccc3ccccc23)=C(C#N)C1c1ccco1 (stereo unspecified) 24.4%, CCCn1c(=N)c(S(=O)(=O)c2ccccc2)cc2c(=O)n3ccccc3nc21 -64.3%, C[C@@H]1CCC[C@@]2(O[C@H](CCO)C[C@@H](O)[C@@H]2O)O1 -12.7%, CCOc1ccc2[nH]c3nc(SCC(=O)NCC4CCCO4)nnc3c2c1 (stereo unspecified) 124%, O=C(NC(=O)N1CCOCC1)c1ccccc1 -17.5%, CCCC(=O)N=c1sc2c(OC)ccc(OC)c2n1C 2.66%, O=C(CSc1nnnn1-c1ccc2c(c1)CCC2)NCc1cccs1 120%, O=C(Nc1cccc(S(=O)(=O)N2CCOCC2)c1)c1ccc2ccccc2n1 -21.8%, Cc1cc(C)c2c(C)[nH]nc2n1 -27.6%, Fc1ccc(Nc2c(-c3ccco3)nc3ccccn23)cc1 32.1%, CNS(=O)(=O)c1cc(NC(=O)CCCNC(=O)c2ccc(Cl)cc2)ccc1C 37.5%, N#CCCn1nc(-c2ccc(Br)cc2)cc1Nc1ccccc1NC(=O)C(F)(F)F -61.6%, C=CC1=C(C(=O)O)N2C(=O)C(NC(=O)Cc3ccccc3)C2SC1 (stereo unspecified) 2.34%, CCCCOc1ccc(C(=O)NCC(=O)NC2CCN(Cc3ccccc3)CC2)cc1 6.93%, CCN(CC(=O)Nc1ccc(S(N)(=O)=O)cc1)S(=O)(=O)c1cc(C)ccc1OC 4.05%, O=C(NC1CC2CCCC(C1)N2C(=O)NC1CCCCC1)c1ccc(F)cc1 (stereo unspecified) -31%, O=c1[nH]c2cc(Br)cnc2nc1/C=C(\O)c1ccc(F)cc1 -0.39%, CCC(C)c1ccc(NC(=S)NCc2ccccn2)cc1 (stereo unspecified) 9.19%, O=C(COc1ccc(Br)cc1)OCCN1CCCCC1 20.9%, CCCCOc1ccc(C(=O)NCC(=O)NC2CCCCC2)cc1 24.1%, O=C(OCC(=O)N1CCN(c2ccccc2)CC1)c1ccccc1OC(F)F -18.4%, Cc1c(C(=O)N(C)Cc2cccc(F)c2)oc2c(Cl)cccc12 -11.3%, Cc1[nH]n2c(=O)c3c(nc2c1-c1ccccc1)CCC3 51.3%, COc1cc(NS(=O)(=O)c2ccc(NS(=O)(=O)c3ccc(C)cc3)cc2)nc(OC)n1 -20%, Cc1ccc2[nH]c3c(c2c1)CC/C(=C/c1ccccc1)C3=O 207%, COc1ccc(O)c(CN2CCC(n3nccc3NC(=O)C3CCCC3)CC2)c1 39.2%, C=CCc1ccc(OCCn2nnc3ccccc32)c(OC)c1 -55.6%, O=S(c1ccc2ccccc2c1)c1cnns1 (stereo unspecified) -25.9%, COc1ccc(OCCN(C)CC(=O)Nc2ccccc2SC)cc1 89.8%, COc1ccc(/C=N/NC(=O)c2cc(C)n(-c3ccccc3)c2C)cc1OC 8.53%, CC1(C)C(=O)Nc2ccccc2N1C(=O)COC(=O)c1cccnc1 -14%, CCCCOc1ccc(NC(=O)CN2CCN(CC)CC2)cc1 -9.11%, O=C(/C=C1\SC(=O)NC1=O)Nc1ccc(C(=O)O)cc1 -0.576%, COc1cc(Nc2nc3ccccc3nc2NS(=O)(=O)c2ccc([N+](=O)[O-])cc2)cc(OC)c1OC -146%, CC(=O)Nc1cc2nc(C)n(Cc3ccccc3)c2nc1C 4.78%, Cc1nn(Cc2ccccc2)c(Cl)c1/C=C1\NC(=S)NC1=O -2.3% [at 9.22 µM], COc1ccc(N2CCn3c2nc2c3c(=O)n(CCCc3ccccc3)c(=O)n2C)cc1 22.2%, O=C(c1ccccc1)c1cn[nH]c1-c1ccccc1O -22.8%, COC(=O)C1NN=C(C(=O)c2ccc(Cl)cc2)C1c1ccc(OC)cc1 (stereo unspecified) 34.7%, Nc1no[n+]([O-])c1-c1ccccc1 -20.1%, CCn1c(C)nc2cc(C(=O)N/N=C/c3ccccc3C)ccc21 -56%, COc1ccc(-n2nc(C(=O)NCC(=O)N3CCCC3)c3ccccc3c2=O)cc1 -6.18%, Cc1ccc(C)c(N2CCN(C(=O)c3nn(C)c4c3CS(=O)(=O)c3ccccc3-4)CC2)c1 65.7%, NC(=O)C1(N2CCCCC2)CCN(C(=S)Nc2ccc(S(N)(=O)=O)cc2)CC1 -9.77%, Nn1c(SCC(=O)NNC(=O)c2ccccc2)nnc1-c1ccccc1F, COc1ccc(NS(=O)(=O)c2ccc3c(c2)NC(=O)CO3)cc1 15.3%, Cc1ccn2c(Nc3ccccc3C)c(-c3cccnc3)nc2c1 26.8%, Oc1cc(NCc2cccnc2)ccc1-c1nc2ccccc2o1 6.61%, COc1ccc(S(=O)(=O)N2CCOCC2)cc1NC(=O)c1ccc(OC(F)F)cc1

Potency, active:
Cc1sc2ncnc(N=Nc3c(O)[nH]c4ccccc34)c2c1C 20.6 µM

Potency, inconclusive:
CCOc1ccccc1NC(=O)c1ccc(OCC)c([N+](=O)[O-])c1 2.91 µM [activator, full curve], Cn1c(=O)n(C)c2cc(S(=O)(=O)NCCO)ccc21 0.731 µM [falling, full curve, poor fit], CN(C(=O)c1cccc(C(=O)N(C)c2ccccc2)c1)c1ccccc1 3.66 µM [activator, full curve], Cc1ccccc1C(=O)NC(=S)Nc1ncccn1 18.4 µM [activator, partial curve], O=C(CCn1cnc2ccccc2c1=O)Nc1ccc2c(c1)OCCO2 18.4 µM [activator, partial curve, poor fit], CCN(CC)S(=O)(=O)c1cc(C(=O)N2CCc3ccccc32)ccc1Cl 29.1 µM [activator, single point], CCN(Cc1nc(-c2ccc(OC)c(OC)c2)no1)C(=O)c1ccoc1C 16.4 µM [falling, partial curve], CCOC(=O)c1cc2c(=O)n3ccccc3nc2n(Cc2ccccc2Cl)c1=N 0.651 µM [falling, full curve, poor fit], Cc1ccc(CC2CC(=O)N(c3cc(C)ccc3C)C2=O)cc1 (stereo unspecified) 20.6 µM [falling, single point], Cc1ccc(-c2[nH]c3ccccc3c2SCCNC(=O)c2cc3ccccc3oc2=O)cc1 2.31 µM [activator, partial curve], Cc1nn(CC2CC2)c(=O)n1-c1ccccc1 0.184 µM [falling, full curve, poor fit], Nc1ccc2oc(-c3cccc(Br)c3)nc2c1 0.231 µM [activator, partial curve], CCc1cccc(NC(=O)CS(=O)Cc2nc(-c3ccc(C)cc3)oc2C)c1 (stereo unspecified) 0.366 µM [activator, full curve, poor fit], O=C(c1ccco1)N1CCN(C(=O)c2cc(-c3ccc(F)cc3)no2)CC1 16.4 µM [falling, single point], Cc1ncsc1CCC(=O)N1CCCC(C(=O)c2ccc3c(c2)OCO3)C1 (stereo unspecified) 18.4 µM [falling, single point], O=C1Nc2ccccc2C1Cc1ccccc1 (stereo unspecified) 0.164 µM [activator, full curve, poor fit], O=C(c1nn2c(C(F)(F)F)cc(-c3cccs3)nc2c1Cl)N1CCCc2ccccc21 0.0651 µM [activator, full curve, poor fit], COCCCNC(=O)Cn1nnc(-c2ccc(NC(=O)c3ccc(F)cc3)cc2)n1 29.1 µM [activator, single point], O=C(NC(=S)Nc1ccc(NC(=O)c2ccccc2)cc1)c1ccc(F)cc1 29.1 µM [rising, single point]

outcome, inactive:
C=CCSc1nnc(CC(OC)OC)n1-c1ccccc1 inactive [at 46.1 µM], Cc1ccc(OCC(=O)Nc2ccc(S(=O)(=O)N3CCOCC3)cc2)c(C)c1 inactive [at 46.1 µM]

— PubChem BioAssay AID2685 (National Center for Advancing Translational Sciences (NCATS), 2010)
